# Some entries share one result that the patent states for a list of compounds. Some compounds share one range, which may span the group rather than tell each member.
# Key:
# Format in all cases: in vivo
# [1] = system: Podosphaera leucotricha; assay: Action against Podosphaera leucotricha/apple (powdery mildew on apple); details: apple seedlings cv. McIntosh, 0.02% active ingredient sprayed 1 day before inoculation, assessed after 12 days incubation
# [2] = system: Botrytis cinerea; assay: Action against Botrytis cinerea/grape (Botrytis on grapes); details: grape seedlings cv. Gutedel, 0.02% active ingredient sprayed 2 days before inoculation, assessed after 4 days incubation
# [3] = system: Uncinula necator; assay: Action against Uncinula necator/grape (powdery mildew on grapes); details: grape seedlings cv. Gutedel, 0.02% active ingredient sprayed 1 day before inoculation, assessed after 7 days incubation
# [4] = system: Erysiphe graminis; assay: Action against Erysiphe graminis/barley (powdery mildew on barley); details: barley cv. Regina, 0.02% active ingredient sprayed 1 day before inoculation, assessed after 6 days incubation
# [5] = system: Alternaria solani; assay: Action against Alternaria solani/tomato (early blight on tomatoes); details: tomato cv. Roter Gnom, 0.02% active ingredient sprayed 2 days before inoculation, assessed after 3 days incubation
# [6] = system: Septoria Nodorum; assay: Action against Septoria Nodorum/wheat (Septoria leaf spot on wheat); details: wheat cv. Arina, 0.02% active ingredient sprayed 1 day before inoculation, assessed 11 days after inoculation
# [7] = system: Botrytis cinerea; assay: Action against Botrytis cinerea/tomato (Botrytis on tomatoes); details: tomato cv. Roter Gnom, 0.02% active ingredient sprayed 2 days before inoculation, assessed after 4 days incubation
# [8] = system: Venturia inaegualis; assay: Action against Venturia inaegualis/apple (scab on apple); details: apple seedlings cv. McIntosh, 0.02% active ingredient sprayed 1 day before inoculation, assessed after 4+4+4 days incubation
# [9] = system: Helminthosporium teres; assay: Action against Helminthosporium teres/barley (net blotch on barley); details: barley cv. Regina, 0.02% active ingredient sprayed 2 days before inoculation, assessed after 4 days incubation
# [10] = system: Puccinia recondita; assay: Action against Puccinia recondita/wheat (brownrust on wheat); details: wheat cv. Arina, 0.02% active ingredient sprayed 1 day before inoculation, assessed 10 days after inoculation
# [11] = system: Septoria tritici; assay: Action against Septoria tritici/wheat (Septoria leaf spot on wheat); details: wheat cv. Riband, 0.2% active ingredient sprayed 1 day before inoculation, assessed 18 days after inoculation
Compound,infestation (disease incidence) [1],infestation (disease incidence) [2],infestation (disease incidence) [3],infestation (disease incidence) [4],infestation (disease incidence) [5],infestation (disease incidence) [6],infestation (disease incidence) [7],infestation (disease incidence) [8],infestation (disease incidence) [9],infestation (disease incidence) [10],disease incidence [11]
C#Cc1ccc(-c2ccccc2NC(=O)c2cn(C)nc2C(F)(F)F)cc1 [Compound 1.01],0-5 % infestation,0-5 % infestation,0-5 % infestation,0-5 % infestation,0-5 % infestation,0-5 % infestation,0-5 % infestation,0-5 % infestation,0-5 % infestation,0-5 % infestation,–
Cn1cc(C(=O)Nc2ccccc2-c2ccc(C#C[Si](C)(C)C)cc2)c(C(F)(F)F)n1 [Compound 1.08],0-5 % infestation,0-5 % infestation,0-5 % infestation,0-5 % infestation,0-5 % infestation,0-5 % infestation,0-5 % infestation,0-5 % infestation,0-5 % infestation,0-5 % infestation,–
Cn1cc(C(=O)Nc2ccccc2-c2ccc(C#CCl)cc2)c(C(F)F)n1 [Compound 1.13],0-5 % infestation,–,0-5 % infestation,0-5 % infestation,0-5 % infestation,–,0-5 % infestation,0-5 % infestation,0-5 % infestation,0-5 % infestation,< 20 % disease incidence
Cn1cc(C(=O)Nc2ccccc2-c2ccc(C#CC(F)(F)F)cc2)c(C(F)F)n1 [Compound 1.19],0-5 % infestation,–,0-5 % infestation,0-5 % infestation,0-5 % infestation,–,0-5 % infestation,0-5 % infestation,0-5 % infestation,0-5 % infestation,< 20 % disease incidence
Cn1cc(C(=O)Nc2ccccc2-c2ccc(C=C(Cl)Cl)cc2)c(C(F)F)n1 [Compound 1.33],0-5 % infestation,–,0-5 % infestation,0-5 % infestation,0-5 % infestation,–,0-5 % infestation,0-5 % infestation,0-5 % infestation,0-5 % infestation,< 20 % disease incidence
Cn1cc(C(=O)Nc2ccccc2-c2ccc(C=C(Cl)C(F)(F)F)cc2)c(C(F)(F)F)n1 [Compound 1.56],0-5 % infestation,–,0-5 % infestation,0-5 % infestation,0-5 % infestation,–,0-5 % infestation,0-5 % infestation,0-5 % infestation,0-5 % infestation,< 20 % disease incidence
Cn1cc(C(=O)Nc2ccccc2-c2ccc(C=C(Cl)C(F)(F)F)cc2)c(C(F)F)n1 [Compound 1.57],0-5 % infestation,–,0-5 % infestation,0-5 % infestation,0-5 % infestation,–,0-5 % infestation,0-5 % infestation,0-5 % infestation,0-5 % infestation,< 20 % disease incidence
Cn1cc(C(=O)Nc2ccccc2-c2ccc(C#CC(C)(C)C)cc2)c(C(F)F)n1 [Compound 1.67],0-5 % infestation,–,0-5 % infestation,0-5 % infestation,0-5 % infestation,–,0-5 % infestation,0-5 % infestation,0-5 % infestation,0-5 % infestation,< 20 % disease incidence
CC#Cc1ccc(-c2ccccc2NC(=O)c2cn(C)nc2C(F)F)cc1 [Compound 1.70],0-5 % infestation,–,0-5 % infestation,0-5 % infestation,0-5 % infestation,–,0-5 % infestation,0-5 % infestation,0-5 % infestation,0-5 % infestation,< 20 % disease incidence
Cn1cc(C(=O)Nc2ccccc2-c2ccc(C#CC3CC3)cc2)c(C(F)(F)F)n1 [Compound 1.77],0-5 % infestation,–,0-5 % infestation,0-5 % infestation,0-5 % infestation,–,0-5 % infestation,0-5 % infestation,0-5 % infestation,0-5 % infestation,< 20 % disease incidence
Cn1cc(C(=O)Nc2ccccc2-c2ccc(C#CC3CC3)cc2)c(C(F)F)n1 [Compound 1.78],0-5 % infestation,–,0-5 % infestation,0-5 % infestation,0-5 % infestation,–,0-5 % infestation,0-5 % infestation,0-5 % infestation,0-5 % infestation,< 20 % disease incidence
CC(C)C#Cc1ccc(-c2ccccc2NC(=O)c2cn(C)nc2C(F)F)cc1 [Compound 1.107],0-5 % infestation,–,0-5 % infestation,0-5 % infestation,0-5 % infestation,–,0-5 % infestation,0-5 % infestation,0-5 % infestation,0-5 % infestation,< 20 % disease incidence
Cn1cc(C(=O)Nc2ccccc2-c2ccc(C=C(F)Cl)cc2)c(C(F)F)n1 [Compound 1.152],0-5 % infestation,–,0-5 % infestation,0-5 % infestation,0-5 % infestation,–,0-5 % infestation,0-5 % infestation,0-5 % infestation,0-5 % infestation,< 20 % disease incidence
Cn1cc(C(=O)Nc2ccccc2-c2ccc(C=C(F)Br)cc2)c(C(F)F)n1 [Compound 1.155],0-5 % infestation,–,0-5 % infestation,0-5 % infestation,0-5 % infestation,–,0-5 % infestation,0-5 % infestation,0-5 % infestation,0-5 % infestation,< 20 % disease incidence
Cn1cc(C(=O)Nc2ccccc2-c2ccc(C#C[Si](C)(C)C(C)(C)C)cc2)c(C(F)(F)F)n1 [Compound 1.252],0-5 % infestation,–,0-5 % infestation,0-5 % infestation,0-5 % infestation,–,0-5 % infestation,0-5 % infestation,0-5 % infestation,0-5 % infestation,< 20 % disease incidence
Cn1cc(C(=O)Nc2ccccc2-c2ccc(C#CC(C)(C)C)cc2)c(C(F)(F)F)c1 [Compound 2.66],0-5 % infestation,–,0-5 % infestation,0-5 % infestation,–,–,0-5 % infestation,0-5 % infestation,0-5 % infestation,0-5 % infestation,< 20 % disease incidence
